Measured values taken from paper PMC4745749.
Results are given in words; binding and its absence hold for the method and conditions named. For some of these results: In cells and extracts the contact can be indirect. Some results given as binding are weak or reduced against the parent protein; the word gives no strength. For some of these results: Tags and fused reporters may be left off the sequences shown. Values belong to the binder of their own block, whether it stands above or below them.

Legend:
[1] = target: T1, dRad6 (yeast two-hybrid bait) (D. melanogaster) (UniProt P25153); experiment: two-hybrid; yeast two-hybrid screening with dRad6 as bait; data not shown
T1 sequence: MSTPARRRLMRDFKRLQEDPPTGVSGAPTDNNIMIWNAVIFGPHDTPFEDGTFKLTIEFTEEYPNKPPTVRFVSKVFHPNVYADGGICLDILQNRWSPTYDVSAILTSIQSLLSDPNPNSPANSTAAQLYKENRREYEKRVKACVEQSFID

[2] = target: T2, HA-tagged dRad6 (D. melanogaster) (UniProt P25153); experiment: co-IP; Drosophila S2 cells transfected with HA-tagged dRad6 or GFP-tagged dASF1; IP with anti-HA or anti-GFP, blots with anti-dASF1 or anti-dRad6; cells treated with 50 μM MG132 for 10 h, or with or without 0.1% MMS for 24 h (MMS promoted the interaction)
T2 sequence: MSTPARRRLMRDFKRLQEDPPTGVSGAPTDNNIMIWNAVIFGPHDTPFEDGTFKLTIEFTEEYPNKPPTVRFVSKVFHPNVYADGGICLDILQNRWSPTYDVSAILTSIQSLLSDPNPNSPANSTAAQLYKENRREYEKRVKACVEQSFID

[3] = target: T3, GST-dRad6 fusion protein (D. melanogaster) (UniProt P25153); experiment: pull-down; GST pull-down with GST-dRad6 fusion protein (Supplementary Figure S2A), called in vitro
T3 sequence: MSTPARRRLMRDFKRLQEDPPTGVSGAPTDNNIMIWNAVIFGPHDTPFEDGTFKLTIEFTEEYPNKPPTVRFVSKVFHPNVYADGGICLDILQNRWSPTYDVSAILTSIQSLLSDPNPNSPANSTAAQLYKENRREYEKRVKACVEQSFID

[4] = target: T4, GFP-tagged dASF1 (D. melanogaster) (UniProt Q9V464); experiment: co-IP; Drosophila S2 cells transfected with HA-tagged dRad6 or GFP-tagged dASF1; IP with anti-HA or anti-GFP, blots with anti-dASF1 or anti-dRad6; cells treated with 50 μM MG132 for 10 h, or with or without 0.1% MMS for 24 h (MMS promoted the interaction)
T4 sequence: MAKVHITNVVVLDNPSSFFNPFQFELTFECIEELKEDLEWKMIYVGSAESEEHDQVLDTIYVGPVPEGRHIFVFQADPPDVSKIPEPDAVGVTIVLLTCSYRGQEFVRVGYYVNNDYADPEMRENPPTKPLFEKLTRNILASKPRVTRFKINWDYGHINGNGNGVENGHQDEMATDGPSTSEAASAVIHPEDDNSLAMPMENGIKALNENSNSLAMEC

B2: dASF1 (endogenous, S2 cells) (protein, UniProt Q9V464 1-218)
chain: MAKVHITNVVVLDNPSSFFNPFQFELTFECIEELKEDLEWKMIYVGSAESEEHDQVLDTIYVGPVPEGRHIFVFQADPPDVSKIPEPDAVGVTIVLLTCSYRGQEFVRVGYYVNNDYADPEMRENPPTKPLFEKLTRNILASKPRVTRFKINWDYGHINGNGNGVENGHQDEMATDGPSTSEAASAVIHPEDDNSLAMPMENGIKALNENSNSLAMEC
- binding [2]: binds weakly

B3: dASF1 (GST pull-down) (protein, UniProt Q9V464 1-218)
chain: MAKVHITNVVVLDNPSSFFNPFQFELTFECIEELKEDLEWKMIYVGSAESEEHDQVLDTIYVGPVPEGRHIFVFQADPPDVSKIPEPDAVGVTIVLLTCSYRGQEFVRVGYYVNNDYADPEMRENPPTKPLFEKLTRNILASKPRVTRFKINWDYGHINGNGNGVENGHQDEMATDGPSTSEAASAVIHPEDDNSLAMPMENGIKALNENSNSLAMEC
- binding [3]: binds

Other lines, results leading:

- binding [1]: binds
B1: dASF1 (yeast two-hybrid prey) (protein, UniProt Q9V464 1-218)
chain: MAKVHITNVVVLDNPSSFFNPFQFELTFECIEELKEDLEWKMIYVGSAESEEHDQVLDTIYVGPVPEGRHIFVFQADPPDVSKIPEPDAVGVTIVLLTCSYRGQEFVRVGYYVNNDYADPEMRENPPTKPLFEKLTRNILASKPRVTRFKINWDYGHINGNGNGVENGHQDEMATDGPSTSEAASAVIHPEDDNSLAMPMENGIKALNENSNSLAMEC

- binding [4]: binds weakly
B4: dRad6 (endogenous, S2 cells) (enzyme, UniProt P25153 1-151)
chain: MSTPARRRLMRDFKRLQEDPPTGVSGAPTDNNIMIWNAVIFGPHDTPFEDGTFKLTIEFTEEYPNKPPTVRFVSKVFHPNVYADGGICLDILQNRWSPTYDVSAILTSIQSLLSDPNPNSPANSTAAQLYKENRREYEKRVKACVEQSFID
